PubChem BioAssay AID743121 | NCATS, 2013
Aim: 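Partners whose loss is lethal together with topoisomerase I blockade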 (primary screen). System: MDA-MB-231 cells, a human breast cancer line. Knock-down reagent: single siRNA against human genes, 20 nM siRNA (0.8 pmol per well). Duration: 120 h (drug added 48 h after transfection, read 72 h later). Conditions: camptothecin 20 nM (about EC30) for 72 h; vehicle 0.1% DMSO in parallel plates. Measurement: 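Cell viability by ATP luminescence (CellTiter-Glo) as % of non-targeting siRNA wells, and the log2 ratio of viability without drug over viability with camptothecin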. Direction: log2 vehicle/camptothecin viability: higher = stronger sensitisation to camptothecin; viability with camptothecin and viability without drug: higher = more viable cells. Call rule: 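Active genes have an RSA gene-level p-value below 0.001, computed from the ratios of their separate siRNAs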.
The whole screen tested about 26,000 reagents; shown is an unselected part. 167 of them (0.63%) were called active. 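Calls are per gene from RSA p-values that are not deposited; an individual active-marked siRNA can sensitise only weakly.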 Reagents against one gene are numbered here.

The first 2 records, to show the layout:
Target gene	reagent no.	log2 vehicle/camptothecin viability	viability with camptothecin (% of control)	viability without drug (% of control)	Call
CLIC5 (CLIC family member 5)	1	-0.25	65.9	55.4	inactive
CLIC5 (CLIC family member 5)	2	0.174	49.4	55.7	inactive

Main list, repeating the preview:
Target gene	reagent no.	log2 vehicle/camptothecin viability	viability with camptothecin (% of control)	viability without drug (% of control)	Call
CLIC5 (CLIC family member 5)	1	-0.25	65.9	55.4	inactive
CLIC5 (CLIC family member 5)	2	0.174	49.4	55.7	inactive
CLIC5 (CLIC family member 5)	3	0.0319	89.7	91.7	inactive
TGFA (transforming growth factor alpha)	1	-0.116	110	101	inactive
TGFA (transforming growth factor alpha)	2	0.0555	108	113	inactive
TGFA (transforming growth factor alpha)	3	-0.00931	101	100	inactive
TGFA (transforming growth factor alpha)	4	-0.304	61.9	50.2	inactive
TXNL4A (thioredoxin like 4A)	1	-0.219	117	101	inactive
TXNL4A (thioredoxin like 4A)	2	-0.631	86.8	56.1	inactive
TXNL4A (thioredoxin like 4A)	3	-0.31	50	40.3	inactive
TXNL4A (thioredoxin like 4A)	4	-0.354	50.2	39.3	inactive
RDH14 (retinol dehydrogenase 14)	1	0.0296	73.9	75.4	inactive
RDH14 (retinol dehydrogenase 14)	2	-0.204	65.6	56.9	inactive
RDH14 (retinol dehydrogenase 14)	3	-0.56	57.1	38.8	inactive
RDH14 (retinol dehydrogenase 14)	4	0.766	29.2	49.7	inactive
PPP2R1A (protein phosphatase 2 scaffold subunit Aalpha)	1	0.631	36.7	56.8	active
PPP2R1A (protein phosphatase 2 scaffold subunit Aalpha)	2	0.753	30.2	50.8	active
PPP2R1A (protein phosphatase 2 scaffold subunit Aalpha)	3	0.0976	50.7	54.2	active
PPP2R1A (protein phosphatase 2 scaffold subunit Aalpha)	4	0.595	46.3	70	active
CXCL2 (C-X-C motif chemokine ligand 2)	1	-0.301	106	85.7	inactive
CXCL2 (C-X-C motif chemokine ligand 2)	2	-0.0417	106	103	inactive
CXCL2 (C-X-C motif chemokine ligand 2)	3	-0.093	119	111	inactive
CXCL2 (C-X-C motif chemokine ligand 2)	4	-0.194	107	93.8	inactive
OCA2 (OCA2 melanosomal transmembrane protein)	1	0.224	49.8	58.2	inactive
OCA2 (OCA2 melanosomal transmembrane protein)	2	0.391	55.2	72.3	inactive
OCA2 (OCA2 melanosomal transmembrane protein)	3	0.865	28.3	51.6	inactive
OCA2 (OCA2 melanosomal transmembrane protein)	4	-0.164	116	104	inactive
PRSS50 (serine protease 50)	1	-0.284	104	85.4	inactive
PRSS50 (serine protease 50)	2	0.282	57	69.4	inactive
PRSS50 (serine protease 50)	3	-0.165	108	96.2	inactive
PRSS50 (serine protease 50)	4	-0.184	66.3	58.3	inactive
